# Paper PMC5992529
# Results are given in words; binding and its absence hold for the method and conditions named. In cells and extracts the contact can be indirect. Some results given as binding are weak or reduced against the parent protein; the word gives no strength. Tags and fused reporters may be left off the sequences shown.
# T1: EGFP-fused IFT70A (human) (UniProt Q86WT1)
# T1 sequence: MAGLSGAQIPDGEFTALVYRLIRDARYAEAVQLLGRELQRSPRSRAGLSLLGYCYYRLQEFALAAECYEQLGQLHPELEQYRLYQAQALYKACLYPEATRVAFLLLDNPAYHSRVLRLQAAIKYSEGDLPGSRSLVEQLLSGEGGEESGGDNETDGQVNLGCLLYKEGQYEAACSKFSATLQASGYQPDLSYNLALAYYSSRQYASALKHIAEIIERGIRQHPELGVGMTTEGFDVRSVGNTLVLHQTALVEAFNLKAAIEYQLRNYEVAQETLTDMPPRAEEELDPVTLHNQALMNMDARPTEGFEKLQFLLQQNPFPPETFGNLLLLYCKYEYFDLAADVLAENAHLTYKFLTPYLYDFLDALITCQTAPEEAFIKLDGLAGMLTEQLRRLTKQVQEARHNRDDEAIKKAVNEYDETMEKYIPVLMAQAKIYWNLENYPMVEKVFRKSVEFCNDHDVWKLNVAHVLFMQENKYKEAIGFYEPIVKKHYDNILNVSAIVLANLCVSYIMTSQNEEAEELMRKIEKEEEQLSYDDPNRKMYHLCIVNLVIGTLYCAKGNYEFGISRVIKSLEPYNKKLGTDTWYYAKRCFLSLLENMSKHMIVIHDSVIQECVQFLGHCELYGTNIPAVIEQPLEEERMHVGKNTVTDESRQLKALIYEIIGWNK
# T2: EGFP-IFT52 (UniProt Q9Y366)
# T2 sequence: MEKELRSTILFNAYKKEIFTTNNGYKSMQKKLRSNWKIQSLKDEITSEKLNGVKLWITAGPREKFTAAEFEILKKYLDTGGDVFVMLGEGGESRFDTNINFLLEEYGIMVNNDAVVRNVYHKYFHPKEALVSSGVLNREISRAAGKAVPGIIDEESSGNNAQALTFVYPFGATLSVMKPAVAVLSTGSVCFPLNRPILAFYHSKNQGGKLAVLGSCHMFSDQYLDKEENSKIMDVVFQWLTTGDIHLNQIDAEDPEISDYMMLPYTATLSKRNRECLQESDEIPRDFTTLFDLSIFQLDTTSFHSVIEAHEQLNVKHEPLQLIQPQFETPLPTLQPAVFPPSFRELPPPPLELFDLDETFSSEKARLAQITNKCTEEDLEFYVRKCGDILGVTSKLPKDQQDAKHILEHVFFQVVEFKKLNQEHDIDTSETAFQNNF
# T3: EGFP-fused IFT88 (UniProt Q13099)
# T3 sequence: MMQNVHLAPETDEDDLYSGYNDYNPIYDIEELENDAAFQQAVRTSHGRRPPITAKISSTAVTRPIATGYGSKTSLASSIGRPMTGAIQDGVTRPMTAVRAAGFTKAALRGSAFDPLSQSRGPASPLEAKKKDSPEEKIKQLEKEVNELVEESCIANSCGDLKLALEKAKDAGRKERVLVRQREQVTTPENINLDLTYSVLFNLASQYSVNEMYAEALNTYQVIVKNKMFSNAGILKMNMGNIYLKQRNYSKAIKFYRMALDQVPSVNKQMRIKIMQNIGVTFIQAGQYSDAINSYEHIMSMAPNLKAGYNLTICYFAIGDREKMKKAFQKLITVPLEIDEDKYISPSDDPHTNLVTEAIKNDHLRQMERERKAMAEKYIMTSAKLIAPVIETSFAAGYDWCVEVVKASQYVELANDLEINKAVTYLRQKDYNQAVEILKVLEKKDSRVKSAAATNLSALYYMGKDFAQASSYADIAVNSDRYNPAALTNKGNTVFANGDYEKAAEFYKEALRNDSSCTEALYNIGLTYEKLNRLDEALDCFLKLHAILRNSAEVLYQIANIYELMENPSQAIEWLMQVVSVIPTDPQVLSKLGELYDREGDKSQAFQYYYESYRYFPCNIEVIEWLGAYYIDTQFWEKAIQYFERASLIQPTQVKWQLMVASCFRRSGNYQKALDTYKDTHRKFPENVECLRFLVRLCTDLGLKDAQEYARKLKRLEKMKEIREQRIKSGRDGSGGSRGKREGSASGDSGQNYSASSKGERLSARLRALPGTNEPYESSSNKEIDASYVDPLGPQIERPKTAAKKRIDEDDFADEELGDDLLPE
# T4: EGFP-fused IFT70B (human) (UniProt Q8N4P2)
# T4 sequence: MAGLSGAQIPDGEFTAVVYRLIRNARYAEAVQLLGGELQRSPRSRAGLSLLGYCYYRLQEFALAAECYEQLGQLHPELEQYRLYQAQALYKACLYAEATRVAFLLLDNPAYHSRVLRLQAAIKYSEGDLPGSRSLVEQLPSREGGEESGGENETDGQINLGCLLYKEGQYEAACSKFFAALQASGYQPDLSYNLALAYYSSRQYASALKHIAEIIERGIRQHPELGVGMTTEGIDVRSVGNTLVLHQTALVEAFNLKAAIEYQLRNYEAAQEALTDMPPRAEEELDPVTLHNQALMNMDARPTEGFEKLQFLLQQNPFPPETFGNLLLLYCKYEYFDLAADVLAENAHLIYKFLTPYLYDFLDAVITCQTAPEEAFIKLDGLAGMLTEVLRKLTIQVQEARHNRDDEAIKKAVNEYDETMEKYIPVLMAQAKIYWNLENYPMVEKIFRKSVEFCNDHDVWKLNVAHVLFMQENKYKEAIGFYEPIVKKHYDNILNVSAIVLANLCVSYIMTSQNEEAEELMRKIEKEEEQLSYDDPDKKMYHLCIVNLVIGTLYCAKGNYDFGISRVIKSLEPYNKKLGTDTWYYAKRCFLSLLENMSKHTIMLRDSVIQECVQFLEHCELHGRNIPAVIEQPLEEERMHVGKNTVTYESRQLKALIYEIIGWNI
# B1: mCherry (mChe)-fused IFT52 (protein, UniProt Q9Y366 1-437)
# chain: MEKELRSTILFNAYKKEIFTTNNGYKSMQKKLRSNWKIQSLKDEITSEKLNGVKLWITAGPREKFTAAEFEILKKYLDTGGDVFVMLGEGGESRFDTNINFLLEEYGIMVNNDAVVRNVYHKYFHPKEALVSSGVLNREISRAAGKAVPGIIDEESSGNNAQALTFVYPFGATLSVMKPAVAVLSTGSVCFPLNRPILAFYHSKNQGGKLAVLGSCHMFSDQYLDKEENSKIMDVVFQWLTTGDIHLNQIDAEDPEISDYMMLPYTATLSKRNRECLQESDEIPRDFTTLFDLSIFQLDTTSFHSVIEAHEQLNVKHEPLQLIQPQFETPLPTLQPAVFPPSFRELPPPPLELFDLDETFSSEKARLAQITNKCTEEDLEFYVRKCGDILGVTSKLPKDQQDAKHILEHVFFQVVEFKKLNQEHDIDTSETAFQNNF
# B2: mChe-fused IFT70A(WT) (protein, UniProt Q86WT1 1-665)
# chain: MAGLSGAQIPDGEFTALVYRLIRDARYAEAVQLLGRELQRSPRSRAGLSLLGYCYYRLQEFALAAECYEQLGQLHPELEQYRLYQAQALYKACLYPEATRVAFLLLDNPAYHSRVLRLQAAIKYSEGDLPGSRSLVEQLLSGEGGEESGGDNETDGQVNLGCLLYKEGQYEAACSKFSATLQASGYQPDLSYNLALAYYSSRQYASALKHIAEIIERGIRQHPELGVGMTTEGFDVRSVGNTLVLHQTALVEAFNLKAAIEYQLRNYEVAQETLTDMPPRAEEELDPVTLHNQALMNMDARPTEGFEKLQFLLQQNPFPPETFGNLLLLYCKYEYFDLAADVLAENAHLTYKFLTPYLYDFLDALITCQTAPEEAFIKLDGLAGMLTEQLRRLTKQVQEARHNRDDEAIKKAVNEYDETMEKYIPVLMAQAKIYWNLENYPMVEKVFRKSVEFCNDHDVWKLNVAHVLFMQENKYKEAIGFYEPIVKKHYDNILNVSAIVLANLCVSYIMTSQNEEAEELMRKIEKEEEQLSYDDPNRKMYHLCIVNLVIGTLYCAKGNYEFGISRVIKSLEPYNKKLGTDTWYYAKRCFLSLLENMSKHMIVIHDSVIQECVQFLGHCELYGTNIPAVIEQPLEEERMHVGKNTVTDESRQLKALIYEIIGWNK
# B3: mCherry (mChe)-fused IFT88 (protein, UniProt Q13099 1-824)
# chain: MMQNVHLAPETDEDDLYSGYNDYNPIYDIEELENDAAFQQAVRTSHGRRPPITAKISSTAVTRPIATGYGSKTSLASSIGRPMTGAIQDGVTRPMTAVRAAGFTKAALRGSAFDPLSQSRGPASPLEAKKKDSPEEKIKQLEKEVNELVEESCIANSCGDLKLALEKAKDAGRKERVLVRQREQVTTPENINLDLTYSVLFNLASQYSVNEMYAEALNTYQVIVKNKMFSNAGILKMNMGNIYLKQRNYSKAIKFYRMALDQVPSVNKQMRIKIMQNIGVTFIQAGQYSDAINSYEHIMSMAPNLKAGYNLTICYFAIGDREKMKKAFQKLITVPLEIDEDKYISPSDDPHTNLVTEAIKNDHLRQMERERKAMAEKYIMTSAKLIAPVIETSFAAGYDWCVEVVKASQYVELANDLEINKAVTYLRQKDYNQAVEILKVLEKKDSRVKSAAATNLSALYYMGKDFAQASSYADIAVNSDRYNPAALTNKGNTVFANGDYEKAAEFYKEALRNDSSCTEALYNIGLTYEKLNRLDEALDCFLKLHAILRNSAEVLYQIANIYELMENPSQAIEWLMQVVSVIPTDPQVLSKLGELYDREGDKSQAFQYYYESYRYFPCNIEVIEWLGAYYIDTQFWEKAIQYFERASLIQPTQVKWQLMVASCFRRSGNYQKALDTYKDTHRKFPENVECLRFLVRLCTDLGLKDAQEYARKLKRLEKMKEIREQRIKSGRDGSGGSRGKREGSASGDSGQNYSASSKGERLSARLRALPGTNEPYESSSNKEIDASYVDPLGPQIERPKTAAKKRIDEDDFADEELGDDLLPE
# Key:
# [1] = molecular target: T1, EGFP-fused IFT70A (human); test: co-IP; visible immunoprecipitation (VIP) assay (red fluorescence on the beads seen under a microscope) and immunoblot of the same beads; lysate of HEK293T cells cotransfected with EGFP-IFT70A or EGFP-IFT70B and ONE mChe fusion alone; precipitated with GST-tagged anti-GFP nanobody on glutathione-Sepharose; HMDEKN buffer (10 mM HEPES pH 7.4, 5 mM MgSO4, 1 mM DTT, 0.5 mM EDTA, 25 mM KCl, 0.05% NP-40), 1 h at 4°C
# [2] = molecular target: T1, EGFP-fused IFT70A (human); test: co-IP; VIP assay and immunoblot of the same beads; lysate of HEK293T cells cotransfected with EGFP-IFT70A or EGFP-IFT70B and mChe-IFT52 + mChe-IFT88 together; precipitated with GST-tagged anti-GFP nanobody beads; HMDEKN buffer pH 7.4, 1 h at 4°C
# EGFP-IFT52 [3] = molecular target: T2, EGFP-IFT52; test: co-IP; VIP assay and immunoblot of the same beads; lysate of HEK293T cells cotransfected with EGFP-IFT52 + EGFP-IFT88 together and an mChe-fused IFT70A construct; precipitated with GST-tagged anti-GFP nanobody beads; HMDEKN buffer pH 7.4, 1 h at 4°C
# EGFP-fused IFT88 = molecular target: T3, EGFP-fused IFT88; test: as above
# EGFP-IFT52 [4] = molecular target: T2, EGFP-IFT52; test: co-IP; VIP assay and immunoblot of the same beads; lysate of HEK293T cells cotransfected with EGFP-IFT52 alone and an mChe-fused IFT70A construct; precipitated with GST-tagged anti-GFP nanobody beads; HMDEKN buffer pH 7.4, 1 h at 4°C
# [5] = molecular target: T4, EGFP-fused IFT70B (human); test: co-IP; VIP assay and immunoblot of the same beads; lysate of HEK293T cells cotransfected with EGFP-IFT70A or EGFP-IFT70B and mChe-IFT52 + mChe-IFT88 together; precipitated with GST-tagged anti-GFP nanobody beads; HMDEKN buffer pH 7.4, 1 h at 4°C
Binder,binding [1],binding [2],binding (EGFP-IFT52 [3]),binding (EGFP-fused IFT88),binding (EGFP-IFT52 [4]),binding [5]
B1,binds weakly,binds,,,,
B2,,,binds,binds,binds,
B3,,binds,,,,binds
